{"sequences": {"note": "The chains behind the UniProt entries cited, without tags or fusion partners. Where a name states a change or a piece, a line headed by the entry shows the natural chain unless it says otherwise. Residues count along the entry.", "UniProt Q9WTL8": "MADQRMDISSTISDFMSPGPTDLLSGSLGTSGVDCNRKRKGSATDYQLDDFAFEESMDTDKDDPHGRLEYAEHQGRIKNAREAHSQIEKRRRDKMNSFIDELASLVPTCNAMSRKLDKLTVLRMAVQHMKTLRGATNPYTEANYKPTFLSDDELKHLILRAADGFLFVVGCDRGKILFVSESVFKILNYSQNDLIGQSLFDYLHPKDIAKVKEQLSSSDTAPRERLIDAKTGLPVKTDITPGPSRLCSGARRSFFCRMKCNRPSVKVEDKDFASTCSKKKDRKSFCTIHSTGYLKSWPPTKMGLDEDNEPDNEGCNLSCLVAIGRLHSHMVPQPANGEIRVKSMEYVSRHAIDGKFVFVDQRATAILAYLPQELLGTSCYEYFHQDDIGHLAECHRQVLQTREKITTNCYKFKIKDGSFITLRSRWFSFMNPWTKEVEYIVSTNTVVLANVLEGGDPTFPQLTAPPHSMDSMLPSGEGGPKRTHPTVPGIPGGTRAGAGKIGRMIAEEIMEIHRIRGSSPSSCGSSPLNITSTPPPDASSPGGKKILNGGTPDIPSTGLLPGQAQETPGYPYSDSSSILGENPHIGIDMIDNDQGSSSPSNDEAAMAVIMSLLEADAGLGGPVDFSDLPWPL", "UniProt A5YKK6, residues 1407-2376": "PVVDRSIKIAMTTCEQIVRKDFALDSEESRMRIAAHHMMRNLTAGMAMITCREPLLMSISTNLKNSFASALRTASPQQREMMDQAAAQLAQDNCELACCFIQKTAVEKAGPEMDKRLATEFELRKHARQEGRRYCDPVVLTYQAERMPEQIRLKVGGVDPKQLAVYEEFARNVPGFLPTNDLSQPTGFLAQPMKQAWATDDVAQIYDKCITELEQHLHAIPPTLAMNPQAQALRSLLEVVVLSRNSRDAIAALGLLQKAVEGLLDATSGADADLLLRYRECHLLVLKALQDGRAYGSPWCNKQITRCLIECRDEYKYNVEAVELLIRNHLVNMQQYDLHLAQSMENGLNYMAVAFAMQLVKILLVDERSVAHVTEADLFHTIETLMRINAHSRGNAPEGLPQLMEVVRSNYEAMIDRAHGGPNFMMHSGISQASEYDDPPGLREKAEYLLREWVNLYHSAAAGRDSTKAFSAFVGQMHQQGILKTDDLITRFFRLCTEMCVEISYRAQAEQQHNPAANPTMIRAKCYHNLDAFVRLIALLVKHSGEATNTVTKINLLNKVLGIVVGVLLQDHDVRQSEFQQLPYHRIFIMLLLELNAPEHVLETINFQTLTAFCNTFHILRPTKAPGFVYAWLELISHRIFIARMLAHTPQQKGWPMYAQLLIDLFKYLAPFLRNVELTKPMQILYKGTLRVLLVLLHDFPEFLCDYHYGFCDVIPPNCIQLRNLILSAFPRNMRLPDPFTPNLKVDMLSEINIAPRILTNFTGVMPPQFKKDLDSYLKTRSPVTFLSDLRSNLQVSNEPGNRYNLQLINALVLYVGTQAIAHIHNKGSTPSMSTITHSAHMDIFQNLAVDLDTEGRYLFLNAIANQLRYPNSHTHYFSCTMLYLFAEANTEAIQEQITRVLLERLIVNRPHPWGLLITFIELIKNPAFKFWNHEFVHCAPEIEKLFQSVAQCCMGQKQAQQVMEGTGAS"}, "source": "paper doi:10.1101/630897", "molecular_target": "Flag-tagged BMAL1 (mouse) (UniProt Q9WTL8)", "assay": "co-IP", "note": "No constants are given. Whether binding was seen depends on the method and setting. In cells and extracts the contact can be indirect. Binding calls can cover weak binding; strength is not graded here.", "data": [{"substance": "HA-tagged CNOT1-C (amino acids 1407-2376) (from UniProt A5YKK6 1407-2376) (domain or fragment)", "values": [{"measurement": "binding", "result": "binds"}]}]}
